Here are results for four substances from paper PMC6974715.

Amino acid sequences for entries named in this document (tags omitted). A change or cut given only in a name is not applied to a line headed by its entry. Residues count along the entry.
UniProt Q9BXW4, residues 1-126: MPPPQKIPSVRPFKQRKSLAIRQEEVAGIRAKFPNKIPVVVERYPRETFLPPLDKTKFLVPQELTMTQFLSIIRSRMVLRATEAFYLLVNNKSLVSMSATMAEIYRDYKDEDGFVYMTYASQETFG
UniProt P54252: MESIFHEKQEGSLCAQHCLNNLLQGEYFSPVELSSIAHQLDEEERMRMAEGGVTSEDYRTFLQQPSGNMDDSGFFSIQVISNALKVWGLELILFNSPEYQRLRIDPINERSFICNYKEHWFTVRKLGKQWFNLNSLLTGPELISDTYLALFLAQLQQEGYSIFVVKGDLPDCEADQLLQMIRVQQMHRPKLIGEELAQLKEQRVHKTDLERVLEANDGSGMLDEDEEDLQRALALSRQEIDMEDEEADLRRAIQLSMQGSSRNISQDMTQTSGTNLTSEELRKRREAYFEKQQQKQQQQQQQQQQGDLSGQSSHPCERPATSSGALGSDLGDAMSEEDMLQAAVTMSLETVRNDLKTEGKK

No constants are given. Whether binding was seen depends on the method and setting. For part of these data: Binding seen in cells or lysates may run through a third protein. Some binding calls cover weakened binding; strength is not graded here.

In assay [1] the target is GST-GABARAP (UniProt O95166). Description: pull-down; lysates of HeLa ^10xHisATXN3^HA incubated with purified recombinant GST-tagged Atg8 proteins immobilized on glutathione beads; immunoblot; only the target purified. On the technique in general: In western blotting, separated proteins are transferred to a membrane and probed.
The target of assay [2] is GST-LC3C (UniProt Q9BXW4). The assay is described as above.
In assay [3] the target is Recombinant GABARAP immobilized on agarose beads (UniProt O95166). The assay can be described thus: pull-down; HeLa cell lysates (dox-inducible ^10xHisATXN3^HA, or transfected GFP-ATXN3 constructs) incubated with recombinant GABARAP or LC3A immobilized on agarose beads (blocked empty beads as control); immunoblot; only the target purified.
Assay [4] shares this target. Description: pull-down; purified recombinant ATXN3 incubated with recombinant GABARAP or LC3A immobilized on agarose beads (blocked empty beads as control); immunoblot; both purified.
The target of assay [5] is Recombinant LC3A immobilized on agarose beads (UniProt Q9H492). The assay can be described thus: pull-down; HeLa cell lysates (dox-inducible ^10xHisATXN3^HA, or transfected GFP-ATXN3 constructs) incubated with recombinant GABARAP or LC3A immobilized on agarose beads (blocked empty beads as control); immunoblot; only the target purified.

In the case of “ATXN3 with N-terminal histidine (10xHis) and C-terminal hemagglutinin (HA) epitope tags (from UniProt P54252-2 1-361) (enzyme)”, the binding result in assay [1], in assay [2] and in assay [3] was “binds” in each case.

In the case of “Endogenous ATXN3 (from UniProt P54252 1-361) (enzyme)”, the binding entry in assay [3] is on record as “binds”.

Regarding “Purified, recombinant ATXN3 (from UniProt P54252-2 1-361) (enzyme)”, the binding entry in assay [4] is “binds”.

Regarding p62 (from UniProt Q13501 1-440), the binding result in assay [5] was “binds”.
